A word on the EC50: it is the concentration that produces a half-maximal response.

The text below walks through data of US20140329863A1 (priority 2011, published 2014).

The subject of series [1] is PrP^Sc in dividing ScN2a-cl3 cells. Type of series: cell-based, mouse. Conditions: FDA-approved drugs, ScN2a-c13 assay, read-out: Potency (μM) ELISA (EC50). Background: ELISA stands for enzyme-linked immunosorbent assay.
The subject of series [2] is N2a-cl3 cells.

`Clc1ccc2c(c1)CCc1cccnc1C2=C1CCNCC1` [Desloratidine]: in series [1], the EC50 turned out to be 6.66 µM. Further, in series [2], the “Potency (μM) Cell Viability” value amounted to 9.561 µM.
